The target in this assay is Alkylglycerone phosphate synthase (human (endogenous in U251)) (UniProt O00116). Put plainly: affinity purification with mass spectrometry; anti-AGPS immunoprecipitate of U251 lysate, 8% SDS-PAGE, silver stain, gel cut near 180 KD, in-gel trypsin digest, LC-MS/MS (Q-Exactive), Proteome Discoverer 1.4.

By UniProt entry, the sequences of proteins in these tests, tags left out. Residues count along the entry.
UniProt O00116, residues 59-658: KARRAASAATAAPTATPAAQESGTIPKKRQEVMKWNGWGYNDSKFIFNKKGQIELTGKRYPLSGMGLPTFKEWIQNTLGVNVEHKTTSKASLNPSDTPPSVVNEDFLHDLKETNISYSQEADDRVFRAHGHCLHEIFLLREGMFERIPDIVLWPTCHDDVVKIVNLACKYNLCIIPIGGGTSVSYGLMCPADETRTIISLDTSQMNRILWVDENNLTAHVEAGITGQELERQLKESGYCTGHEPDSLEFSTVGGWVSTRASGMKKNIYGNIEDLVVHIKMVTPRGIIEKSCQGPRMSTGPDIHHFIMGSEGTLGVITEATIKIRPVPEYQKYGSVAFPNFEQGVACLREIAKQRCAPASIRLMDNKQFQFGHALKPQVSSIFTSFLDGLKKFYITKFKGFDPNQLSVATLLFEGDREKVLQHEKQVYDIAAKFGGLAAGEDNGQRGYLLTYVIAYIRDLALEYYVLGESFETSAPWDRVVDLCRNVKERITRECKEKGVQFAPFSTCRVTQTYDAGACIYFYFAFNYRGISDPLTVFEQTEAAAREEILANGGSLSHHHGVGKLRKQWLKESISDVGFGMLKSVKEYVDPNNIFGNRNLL

Results are given in words; binding and its absence hold for the method and conditions named. In cells and extracts the contact can be indirect. These calls come from enrichment with a bait or labelling near it, and not all partners need be listed.

On to “Heterogeneous nuclear ribonucleoprotein K (from UniProt P61978 1-463)”, for which the binding entry is “binds”.

Values taken from publication PMC8492241.
